No constants are given. Whether binding was seen depends on the method and setting. Binding seen in cells or lysates may run through a third protein. Here binding means that the protein was enriched with, or labelled near, the bait; the list need not be complete.
T1: angiotensin-I-converting enzyme (ACE) (UniProt P12822)
T1 sequence: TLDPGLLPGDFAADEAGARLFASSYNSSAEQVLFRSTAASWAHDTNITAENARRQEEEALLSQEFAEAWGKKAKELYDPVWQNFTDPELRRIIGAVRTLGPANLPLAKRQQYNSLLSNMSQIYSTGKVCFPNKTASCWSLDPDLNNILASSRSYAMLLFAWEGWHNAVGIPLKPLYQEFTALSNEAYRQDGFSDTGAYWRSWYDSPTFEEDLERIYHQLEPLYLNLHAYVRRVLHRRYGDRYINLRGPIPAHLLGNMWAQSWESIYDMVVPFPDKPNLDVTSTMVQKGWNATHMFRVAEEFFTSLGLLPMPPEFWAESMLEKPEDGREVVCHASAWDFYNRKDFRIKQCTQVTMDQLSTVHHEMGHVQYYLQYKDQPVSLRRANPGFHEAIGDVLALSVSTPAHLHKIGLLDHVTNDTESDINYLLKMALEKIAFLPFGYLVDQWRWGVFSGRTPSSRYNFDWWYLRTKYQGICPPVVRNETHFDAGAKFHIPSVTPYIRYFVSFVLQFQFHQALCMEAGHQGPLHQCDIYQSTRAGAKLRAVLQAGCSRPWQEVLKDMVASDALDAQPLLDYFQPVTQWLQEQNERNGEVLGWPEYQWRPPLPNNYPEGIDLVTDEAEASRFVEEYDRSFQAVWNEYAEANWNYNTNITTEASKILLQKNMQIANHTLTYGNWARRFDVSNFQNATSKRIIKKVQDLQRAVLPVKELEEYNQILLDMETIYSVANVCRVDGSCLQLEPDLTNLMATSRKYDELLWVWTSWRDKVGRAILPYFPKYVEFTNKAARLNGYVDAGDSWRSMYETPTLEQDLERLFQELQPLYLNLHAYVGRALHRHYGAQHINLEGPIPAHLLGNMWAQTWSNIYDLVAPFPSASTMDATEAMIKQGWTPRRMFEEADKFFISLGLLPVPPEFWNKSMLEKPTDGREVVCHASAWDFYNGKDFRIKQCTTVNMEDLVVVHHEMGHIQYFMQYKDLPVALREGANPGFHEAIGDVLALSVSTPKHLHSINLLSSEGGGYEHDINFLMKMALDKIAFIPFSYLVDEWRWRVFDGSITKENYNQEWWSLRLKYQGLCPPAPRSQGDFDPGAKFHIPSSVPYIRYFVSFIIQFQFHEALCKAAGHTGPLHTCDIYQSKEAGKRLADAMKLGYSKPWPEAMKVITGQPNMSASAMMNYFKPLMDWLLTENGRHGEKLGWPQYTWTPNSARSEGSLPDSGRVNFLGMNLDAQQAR

B1: … (peptide)
peptide: GPNDERFGPR
B2: ADDFYYQ (peptide)
peptide: ADDFYYQ
B3: … (peptide)
peptide: LPGDNVGFN
B4: … (peptide)
peptide: QGPPGGPGLGGQ
B5: DIIHDPGR (peptide)
peptide: DIIHDPGR
B6: … (peptide)
peptide: IGGGDDSFNTF
B7: … (peptide)
peptide: GPVGNPGIGGPQ
B8: … (peptide)
peptide: AENDDPNFF
B9: FDDINLH (peptide)
peptide: FDDINLH
B10: … (peptide)
peptide: QDAPVPGSPL
B11: … (peptide)
peptide: SGAPGAQGPIGF
B12: THDWWKER (peptide)
peptide: THDWWKER
B13: DDQYHIF (peptide)
peptide: DDQYHIF
B14: … (peptide)
peptide: FSGEDDPMYQ
B15: … (peptide)
peptide: GQDDLFDDM
B16: … (peptide)
peptide: GEDHIPGSPF
B17: HDWWKER (peptide)
peptide: HDWWKER
B18: SDDFFNR (peptide)
peptide: SDDFFNR
B19: … (peptide)
peptide: DKDVPGSPF
B20: FQDDIDKM (peptide)
peptide: FQDDIDKM

Biological target: T1, angiotensin-I-converting enzyme (ACE)
Assay: affinity purification with mass spectrometry; ACE immobilised on CNBr-activated Sepharose 4B; <3 kDa peptide fraction of the hydrolysate loaded in 50 mmol/L borate pH 7.4, washed, eluted with 0.1 M borate with 1 M NaCl pH 8.3; eluent separated by RP-HPLC, subfraction A2-2 identified by LC-MS/MS; only the target purified

binding, binds:
B1
B2
B3
B4
B5
B6
B7
B8
B9
B10
B11
B12
B13
B14
B15
B16
B17
B18
B19
B20

— article PMC10890666, “Targeted Affinity Purification and Mechanism of Action of Angiotensin-Converting Enzyme (ACE) Inhibitory Peptides from Sea Cucumber Gonads” (Marine Drugs, 2024)
